Data reported in paper PMC10367261.
No constants are given. Whether binding was seen depends on the method and setting. In cells and extracts the contact can be indirect. Some binding calls cover weakened binding; strength is not graded here.

Chains of the proteins cited; added tags and fusions are not shown. Lines headed by an entry give the natural chain unless they say otherwise; changes in a name come on top.
UniProt Q99LG0: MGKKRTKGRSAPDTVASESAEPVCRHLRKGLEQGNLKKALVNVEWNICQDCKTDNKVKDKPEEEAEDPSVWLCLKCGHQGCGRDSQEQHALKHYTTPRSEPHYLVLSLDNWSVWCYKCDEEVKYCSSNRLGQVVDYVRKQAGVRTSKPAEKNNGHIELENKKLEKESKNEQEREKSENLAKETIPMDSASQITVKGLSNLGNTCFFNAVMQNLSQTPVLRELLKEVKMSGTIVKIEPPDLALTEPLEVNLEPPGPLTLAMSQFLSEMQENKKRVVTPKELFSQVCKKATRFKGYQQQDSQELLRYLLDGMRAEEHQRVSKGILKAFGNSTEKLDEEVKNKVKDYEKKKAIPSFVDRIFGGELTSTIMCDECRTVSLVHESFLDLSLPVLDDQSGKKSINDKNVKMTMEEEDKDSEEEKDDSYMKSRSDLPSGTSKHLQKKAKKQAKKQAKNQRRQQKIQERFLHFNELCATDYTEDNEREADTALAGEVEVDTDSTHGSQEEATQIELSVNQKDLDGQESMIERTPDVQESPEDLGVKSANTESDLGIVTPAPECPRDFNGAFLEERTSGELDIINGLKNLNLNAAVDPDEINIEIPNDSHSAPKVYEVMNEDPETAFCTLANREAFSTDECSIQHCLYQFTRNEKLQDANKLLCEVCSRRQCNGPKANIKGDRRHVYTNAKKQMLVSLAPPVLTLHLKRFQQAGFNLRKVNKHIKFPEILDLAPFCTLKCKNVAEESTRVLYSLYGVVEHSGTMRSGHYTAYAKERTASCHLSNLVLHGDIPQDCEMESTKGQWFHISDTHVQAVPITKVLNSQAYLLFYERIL
UniProt Q8K1M6: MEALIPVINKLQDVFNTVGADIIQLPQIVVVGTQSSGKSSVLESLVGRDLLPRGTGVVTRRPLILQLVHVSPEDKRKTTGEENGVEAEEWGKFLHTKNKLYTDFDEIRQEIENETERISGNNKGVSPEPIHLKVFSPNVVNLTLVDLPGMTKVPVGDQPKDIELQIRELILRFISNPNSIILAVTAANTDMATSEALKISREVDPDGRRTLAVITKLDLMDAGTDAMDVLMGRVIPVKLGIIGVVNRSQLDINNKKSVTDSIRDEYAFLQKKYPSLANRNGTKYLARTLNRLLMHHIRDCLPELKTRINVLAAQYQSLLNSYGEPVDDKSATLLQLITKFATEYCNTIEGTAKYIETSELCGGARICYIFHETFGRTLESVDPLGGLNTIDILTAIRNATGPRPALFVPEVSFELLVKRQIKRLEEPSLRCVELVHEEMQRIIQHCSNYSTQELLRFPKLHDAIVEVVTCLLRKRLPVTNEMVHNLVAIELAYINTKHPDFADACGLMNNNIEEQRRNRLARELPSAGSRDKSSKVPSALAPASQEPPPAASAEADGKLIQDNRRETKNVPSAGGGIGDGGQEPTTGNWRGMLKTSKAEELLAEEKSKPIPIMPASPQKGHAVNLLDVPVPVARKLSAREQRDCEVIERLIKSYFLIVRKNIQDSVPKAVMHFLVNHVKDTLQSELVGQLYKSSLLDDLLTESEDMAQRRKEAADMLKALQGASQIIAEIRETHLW

Tests used:
GST-tagged USP16 = GST-tagged USP16 (UniProt Q99LG0); experiment: pull-down; GST-tagged USP16 from E. coli immobilized to glutathione agarose (Pierce GST Pull-Down Kit), incubated with RAW264.7 or J774A.1 cell lysates; western blot; GST tag alone as negative control; only the target purified
[1] = biological target: Ubiquitin specific peptidase 16 (mouse (endogenous in RAW264.7 and J774A.1)) (UniProt Q99LG0); experiment: co-IP; lysates of RAW264.7 and J774A.1 macrophages in IP lysis buffer, anti-USP16 (1 ug) conjugated to Protein A/G magnetic beads (Pierce Crosslink Magnetic co-IP Kit), 4 °C overnight; western blot; normal IgG as negative control

binding (GST-tagged USP16): binds
binding [1]: binds
Substance: Dynamin-related protein 1 (from UniProt Q8K1M6 1-736)
